Measurements from patent US7335674B2, “Benzothiazole-4,7-diones and benzoxazole-4,7-diones with substituents in position 5 or 6 and method for production thereof” (Societe de Conseils de Recherches et d'Applications …, priority 2003, dated 2008).
Some entries share one result that the patent states for a list of compounds.

Biological target: T1, purified Cdc25-C recombinant enzyme (MBP-Cdc25C protein) (Homo sapiens, UniProt P30307)
T1 construct: made in house
T1 sequence (P30307 1-473): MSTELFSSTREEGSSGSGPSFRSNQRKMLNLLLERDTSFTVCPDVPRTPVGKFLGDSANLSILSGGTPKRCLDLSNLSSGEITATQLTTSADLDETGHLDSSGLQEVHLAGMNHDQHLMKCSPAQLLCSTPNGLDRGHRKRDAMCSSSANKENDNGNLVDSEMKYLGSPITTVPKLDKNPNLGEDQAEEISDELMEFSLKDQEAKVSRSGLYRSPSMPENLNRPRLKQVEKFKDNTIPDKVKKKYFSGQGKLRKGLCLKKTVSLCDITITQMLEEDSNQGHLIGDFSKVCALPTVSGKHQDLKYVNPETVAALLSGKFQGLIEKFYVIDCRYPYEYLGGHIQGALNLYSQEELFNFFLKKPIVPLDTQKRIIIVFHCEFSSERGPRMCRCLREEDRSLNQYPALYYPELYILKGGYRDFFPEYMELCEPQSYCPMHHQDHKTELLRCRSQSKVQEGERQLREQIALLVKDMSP
Assay: Phosphatase activity of the purified Cdc25C recombinant enzyme (OMFP dephosphorylation, fluorescence)
Type: biochemical
Settings: OMFP 500 μM, 4 hours at 30° C., three independent experiments

Row | SMILES | IC50 [µM]
1 | COc1ccc(-c2nc3c(o2)C(=O)C(NCCN(C)C)=CC3=O)cc1OC [Example 41, 2-(3,4-dimethoxyphenyl)-6-{[2-(dimethylamino)ethyl]amino}-1,3-benzoxazole-4,7-dione] | ≤ 10
2 | CN(C)CCNC1=CC(=O)c2nc(Cc3c(Cl)cccc3Cl)oc2C1=O [Example 42, 2-(2,6-dichlorobenzyl)-6-{[2-(dimethylamino)ethyl]amino}-1,3-benzoxazole4,7-dione] | ≤ 10
3 | CN(C)CCNC1=CC(=O)c2nc(Cc3c(F)cccc3Cl)oc2C1=O [Example 43, 2-(2-chloro-6-fluorobenzyl)-6-{[2-(dimethylamino)ethyl]amino}-1,3-benzoxazole4,7-dione] | ≤ 10
4 | CN(C)CCNC1=CC(=O)c2nc(Cc3cccc4ccccc34)oc2C1=O [Example 44, 6-{[2-(dimethylamino)ethyl]amino}-2-(1-naphthylmethyl)-1,3-benzoxazole-4,7-dione] | ≤ 10
5 | O=C1C=C(NCCN2CCCC2)C(=O)c2oc(-c3ccccc3Br)nc21 [Example 45, 2-(2-bromophenyl)-6-[(2-pyrrolidin-1-ylethyl)amino]-1,3-benzoxazole-4,7-dione] | ≤ 10
6 | O=C1C=C(NCCN2CCCC2)C(=O)c2oc(-c3cccc(Br)c3)nc21 [Example 46, 2-(3-bromophenyl)-6-[(2-pyrrolidin-1-ylethyl)amino]-1,3-benzoxazole-4,7-dione] | ≤ 10
7 | O=C1C=C(NCCN2CCCC2)C(=O)c2oc(-c3cccc(Cl)c3)nc21 [Example 47, 2-(3-chlorophenyl)-6-[(2-pyrrolidin-1-ylethyl)amino]-1,3-benzoxazole4,7-dione] | ≤ 10
8 | O=C1C=C(NCCN2CCCC2)C(=O)c2oc(-c3ccc(Br)cc3)nc21 [Example 48, 2-(4-bromophenyl)-6-[(2-pyrrolidin-1-ylethyl)amino]-1,3-benzoxazole-4,7-dione] | ≤ 10
9 | O=C1C=C(NCCN2CCCC2)C(=O)c2oc(-c3cc(Br)cc(Br)c3)nc21 [Example 49, 2-(3,5-dibromophenyl)-6-[(2-pyrrolidin-1-ylethyl)amino]-1,3-benzoxazole-4,7-dione] | ≤ 10
10 | O=C1C=C(NCCN2CCCC2)C(=O)c2oc(-c3ccc(F)cc3)nc21 [Example 50, 2-(4-fluorophenyl)-6-[(2-pyrrolidin-1-ylethyl)amino]-1,3-benzoxazole-4,7-dione] | ≤ 10
11 | O=C1C=C(NCCN2CCCC2)C(=O)c2oc(-c3cc(F)cc(F)c3)nc21 [Example 51, 2-(3,5-difluorophenyl)-6-[(2-pyrrolidin-1-ylethyl)amino]-1,3-benzoxazole-4,7-dione] | ≤ 10
12 | O=C1C=C(NCCN2CCCC2)C(=O)c2oc(-c3cc(F)c(F)c(F)c3)nc21 [Example 52, 6-[(2-pyrrolidin-1-ylethyl)amino]-2-(3,4,5-trifluorophenyl)-1,3-benzoxazole4,7-dione] | ≤ 10
13 | Cc1cc(-c2nc3c(o2)C(=O)C(NCCN2CCCC2)=CC3=O)ccc1Br [Example 53, 2-(4-bromo-3-methylphenyl)-6-[(2-pyrrolidin-1-ylethyl)amino]-1,3-benzoxazole-4,7-dione] | ≤ 10
14 | CCc1ccc(-c2nc3c(o2)C(=O)C(NCCN2CCCC2)=CC3=O)cc1 [Example 54, 2-(4-ethylphenyl)-6-[(2-pyrrolidin-1-ylethyl)amino]-1,3-benzoxazole-4,7-dione] | ≤ 10
15 | O=C1C=C(NCCN2CCCC2)C(=O)c2oc(-c3ccc(Br)cc3Cl)nc21 [Example 55, 2-(4-bromo-2-chlorophenyl)-6-[(2-pyrrolidin-1-ylethyl)amino]-1,3-benzoxazole-4,7-dione] | ≤ 10
16 | COc1cc(-c2nc3c(o2)C(=O)C(NCCN2CCCC2)=CC3=O)cc(OC)c1OC [Example 56, 6-[(2-pyrrolidin-1-ylethyl)amino]-2-(3,4,5-trimethoxyphenyl)-1,3-benzoxazole-4,7-dione] | ≤ 10
17 | COc1ccc(-c2nc3c(o2)C(=O)C(NCCN2CCCC2)=CC3=O)cc1OC [Example 57, 2-(3,4-dimethoxyphenyl)-6-[(2-pyrrolidin-1-ylethyl)amino]-1,3-benzoxazole-4,7-dione] | ≤ 10
18 | O=C1C=C(NCCN2CCCC2)C(=O)c2oc(Cc3c(F)cccc3Cl)nc21 [Example 58, 2-(2-chloro-6-fluorobenzyl)-6-[(2-pyrrolidin-1-ylethyl)amino]-1,3-benzoxazole-4,7-dione] | ≤ 10
19 | O=C1C=C(NCCN2CCCC2)C(=O)c2oc(-c3ccc4c(c3)OCO4)nc21 [Example 59, 2-(1,3-benzodioxol-5-yl)-6-[(2-pyrrolidin-1-ylethyl)amino]-1,3-benzoxazole4,7-dione] | ≤ 10
20 | CCCCCCc1nc2c(s1)C(=O)C(NCCN(C)C)=CC2=O [Example 60, 6-{[2-(dimethylamino)ethyl]amino}-2-hexyl-1,3-benzothiazole-4,7-dione] | ≤ 10
